Experiment [1] deals with T1, p40_(C197A) (murine p40, flag-tagged) (mouse) (UniProt P43432).
T1 sequence: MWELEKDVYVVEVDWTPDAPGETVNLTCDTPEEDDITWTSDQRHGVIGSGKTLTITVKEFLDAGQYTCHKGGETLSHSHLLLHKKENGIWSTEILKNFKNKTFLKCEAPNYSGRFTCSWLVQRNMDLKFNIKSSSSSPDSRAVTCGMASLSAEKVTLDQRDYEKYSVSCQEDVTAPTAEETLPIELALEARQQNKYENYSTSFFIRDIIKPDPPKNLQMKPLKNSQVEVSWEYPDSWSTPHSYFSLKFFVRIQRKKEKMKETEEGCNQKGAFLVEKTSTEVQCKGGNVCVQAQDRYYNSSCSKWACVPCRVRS
Briefly: non-reducing SDS-PAGE with Western blot; 20 µl conditioned supernatant of transiently transfected HEK293 cells separated by SDS-PAGE under non-reducing conditions; flag-specific antibody; disulfide-linked dimer. On the technique in general: A western blot detects proteins with antibodies after separation by electrophoresis.

Experiment [2] addresses T2, Fc-tagged EBI3 (murine EBI3) (mouse) (UniProt O35228).
T2 sequence: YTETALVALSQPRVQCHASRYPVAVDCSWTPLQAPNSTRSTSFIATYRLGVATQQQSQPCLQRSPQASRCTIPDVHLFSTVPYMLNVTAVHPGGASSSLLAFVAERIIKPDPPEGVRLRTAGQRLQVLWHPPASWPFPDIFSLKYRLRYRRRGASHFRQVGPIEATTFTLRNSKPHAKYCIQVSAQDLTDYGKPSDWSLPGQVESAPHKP
Briefly: pull-down; lysates of separately transfected cells mixed and incubated overnight at 4°C; EBI3-Fc precipitated with Protein-A-agarose beads via the Fc tag; immunoprecipitation buffer 20 mM Tris pH 7.5, 150 mM NaCl, 1% Triton X-100; Western blot against flag- and Fc-tag.

Experiment [3] addresses T3, Fc-tagged EBI3 (murine EBI3) (mouse), O35228.
T3 chain: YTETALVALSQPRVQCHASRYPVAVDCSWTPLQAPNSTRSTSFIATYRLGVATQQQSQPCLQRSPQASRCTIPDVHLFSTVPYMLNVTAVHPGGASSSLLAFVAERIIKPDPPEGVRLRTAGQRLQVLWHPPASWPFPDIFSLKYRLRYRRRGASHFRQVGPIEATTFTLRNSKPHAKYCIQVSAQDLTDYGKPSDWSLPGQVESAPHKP
Described as above. The note with it: remark: other sources report otherwise.

Results are given in words; binding and its absence hold for the method and conditions named. For part of these data: In cells and extracts the contact can be indirect. Some results given as binding are weak or reduced against the parent protein; the word gives no strength. Sequences can lack the tags named with a protein.

B1: p40_(C197A) (murine p40, flag-tagged) (protein, UniProt P43432 23-335)
chain: MWELEKDVYVVEVDWTPDAPGETVNLTCDTPEEDDITWTSDQRHGVIGSGKTLTITVKEFLDAGQYTCHKGGETLSHSHLLLHKKENGIWSTEILKNFKNKTFLKCEAPNYSGRFTCSWLVQRNMDLKFNIKSSSSSPDSRAVTCGMASLSAEKVTLDQRDYEKYSVSCQEDVTAPTAEETLPIELALEARQQNKYENYSTSFFIRDIIKPDPPKNLQMKPLKNSQVEVSWEYPDSWSTPHSYFSLKFFVRIQRKKEKMKETEEGCNQKGAFLVEKTSTEVQCKGGNVCVQAQDRYYNSSCSKWACVPCRVRS
For the molecule B1, the binding result in experiment [1] was “no binding”.

B2: flag-tagged p35 (murine p35) (protein, UniProt P43431 23-215)
chain: RVIPVSGPARCLSQSRNLLKTTDDMVKTAREKLKHYSCTAEDIDHEDITRDQTSTLKTCLPLELHKNESCLATRETSSTTRGSCLPPQKTSLMMTLCLGSIYEDLKMYQTEFQAINAALQNHNHQQIILDKGMLVAIDELMQSLNHNGETLRQKPPVGEADPYRVKMKLCILLHAFSTRVVTINRVMGYLSSA
Take B2: in experiment [2], the binding entry is on record as “binds”.

B3: flag-tagged p19 (murine p19), Q9EQ14 22-196 (protein)
chain: VPRSSSPDWAQCQQLSRNLCMLAWNAHAPAGHMNLLREEEDEETKNNVPRIQCEDGCDPQGLKDNSQFCLQRIRQGLAFYKHLLDSDIFKGEPALLPDSPMEQLHTSLLGLSQLLQPEDHPRETQQMPSLSSSQQWQRPLLRSKILRSLQAFLAIAARVFAHGAATLTEPLVPTA
With B3, in experiment [3], the binding entry is on record as “no binding”.

The record behind these values is publication PMC4178060, “Recombinant p35 from Bacteria Can Form Interleukin (IL-)12, but Not IL-35” (PLoS ONE, 2014).
